Measured values published in patent US20200199216A1.
Results are given in words; binding and its absence hold for the method and conditions named. A result given as binding can be weak or reduced; the word gives no strength.

How the values were obtained:
[1] = target: equine IL17A-polyHis (equine); assay: Western blot (earlier result retold in Example 15)
[2] = target: equine IL17A-polyHis (equine); assay: Western blot: 0.6 µg protein per lane, SDS-PAGE, PVDF, goat anti-mouse IgG-HRP
[3] = target: equine IL17A-polyHis (equine); assay: Western blot, 0.6 µg protein, goat anti-mouse IgG-HRP
[4] = target: equine IL17A-polyHis (equine); assay: BLI (Octet); biotinylated equine IL17A-polyHis on streptavidin sensors, antibody 20 µg/mL

Measured: binding

B1: mouse monoclonal antibody Clone C (antibody, mouse IgG1, V domains shown)
VH: EVQLVESGGGLVQPGGSLKLSCAASGFTFSSYGMSWVRQTPDKRLELVAIINSNGGSTYYPDSVKGRFTISRDNDKNSLYLQMSSLKSEDTAMYYCVRCHYDYERVFDYWGQGTTLTVSS
VL: DIQMTQSSSYLSVSLGGRVTITCKANDHINNWLAWYQQKPGNAPRLLISGSTSLETGVPSRFSGSGSGKDYTLSITSLQTEDVATYYCQQYWSTPFTFGSGTKLEIK
binds: all assays above
